PubChem BioAssay AID504764, Drosophila RNAi Screening Center – 2011

- Purpose: 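Genome-wide screen for regulators of Notch-driven gene expression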 (primary screen)
- Cells: Drosophila Kc167 cells
- Reagents: long dsRNA against Drosophila genes
- Time to read-out: about 5 days (4 days dsRNA, then 24 h after transfection)
- Conditions: transfection of constitutively active membrane-tethered Notch lacking the extracellular domain, read 24 h later
- Measured: 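Light from a Notch-responsive E(spl)m3 luciferase reporter under active Notch, with control-promoter and no-Notch reporter wells to normalise; raw counts from paired wells a and b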
- Scale: induced reporter light, run 1, well a and induced reporter light, run 1, well b: higher = more light from the Notch target reporter with active Notch; control promoter light, run 1, well a and control promoter light, run 1, well b: higher = more light from the viral control promoter (cell number, transfection, viability); uninduced reporter light, run 1, well a: higher = more light from the Notch target reporter without active Notch
- Rule for the call: 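Hit if the duplicate-averaged log2 ratio of induced to control-promoter light gives a plate-wise z beyond ±2, or induced to uninduced beyond ±1.8; weak-control or discordant-duplicate wells dropped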
- Meaning of the calls: active = modifier hit (raised or lowered Notch signal); inactive = not a hit
The screen tested about 22,000 reagents; shown is an unselected part of those with a known target gene and a result. Over the whole deposit, 403 (1.9%) are marked active. 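Unnormalised raw counts per well; ratio z-scores behind the hit calls and whether each hit raises or lowers signal are not deposited.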 The numbers tell different reagents against one gene apart. Not given: the amount of reagent.

| target gene | reagent | induced reporter light, run 1, well a | induced reporter light, run 1, well b | control promoter light, run 1, well a | control promoter light, run 1, well b | uninduced reporter light, run 1, well a | call |
| --- | --- | --- | --- | --- | --- | --- | --- |
| Grl36a (Gustatory receptor-like 36a) | 1 | – | – | – | – | – | inactive |
| CG12861 | 1 | 91170 | 95615 | 94925 | 91625 | 8560 | inactive |
| Dpm1 (Dolichyl-phosphate mannosyltransferase subunit 1) | 1 | 43390 | 22965 | 25580 | 25285 | 1610 | inactive |
| CG11679 | 1 | 1.34e5 | 1.01e5 | 1.49e5 | 1.66e5 | 8438 | inactive |
| CG12105 | 1 | 97780 | 1.05e5 | 1.61e5 | 1.91e5 | 9665 | inactive |
| Stt3B | 1 | 1.64e5 | 1.74e5 | 1.97e5 | 1.84e5 | 14785 | inactive |
| put (punt) | 1 | 1.01e5 | 1.13e5 | 80540 | 93995 | 9680 | inactive |
| CG11663 | 1 | 27145 | 29470 | 52620 | 50465 | 6250 | inactive |
| CG14518 | 1 | 1.79e5 | 1.39e5 | 2.07e5 | 2.09e5 | 14585 | inactive |
| CG32365 | 1 | 2.05e5 | 2.41e5 | 2.98e5 | 2.27e5 | 13880 | inactive |
| CG32365 | 2 | 8740 | 8845 | 11330 | 9375 | 4415 | inactive |
| CG32365 | 3 | 21595 | 19675 | 10565 | 12585 | 16100 | inactive |
| Gle1 (Gle1 RNA export mediator) | 1 | 74580 | 83500 | 84210 | 69665 | 7240 | inactive |

Single entries from above.
Result for CG14518 in “call”: inactive
Under “control promoter light, run 1, well a”, CG11663 shows 52620

The results go on.
| target gene | reagent | induced reporter light, run 1, well a | induced reporter light, run 1, well b | control promoter light, run 1, well a | control promoter light, run 1, well b | uninduced reporter light, run 1, well a | call |
| --- | --- | --- | --- | --- | --- | --- | --- |
| Tie (Tie-like receptor tyrosine kinase) | 1 | 1.38e5 | 1.21e5 | 85870 | 87360 | 13585 | inactive |
| Tie (Tie-like receptor tyrosine kinase) | 2 | 1.72e5 | 1.22e5 | 1.16e5 | 83945 | 7838 | active |
| CG6041 | 1 | 1.63e5 | 1.56e5 | 3.01e5 | 2.97e5 | 9538 | inactive |
| CG15483 | 1 | 1.32e5 | 1.70e5 | 1.43e5 | 1.63e5 | 12515 | inactive |
| CG31921 | 1 | 1.06e5 | 1.04e5 | 1.45e5 | 1.39e5 | 9070 | inactive |
| CG12236 | 1 | 6275 | 6928 | 9405 | 8160 | 5190 | inactive |
| CG12236 | 2 | 1.08e5 | 92460 | 1.22e5 | 1.47e5 | 5690 | inactive |
